Targets include RPA49 (human) (UniProt Q9GZS1); RPA2 (human) (UniProt Q9H9Y6); RPA1 (human) (UniProt O95602).
Common to all, as to assay: cryo-EM structure; Pol I EC: purified Pol I at 0.7 mg/mL with annealed DNA–RNA scaffold in 1.5 molar excess; EM buffer 15 mM HEPES pH 7.5, 80 mM (NH4)2SO4, 5 mM MgCl2, 10 mM DTT; 2.7 Å; both purified

No constants are given. Whether binding was seen depends on the method and setting. Some results given as binding are weak or reduced against the parent protein; the word gives no strength.

RPA34 (from UniProt O15446 1-510): the binding entry in the assay with RPA49 (human) is “binds”. Turning to RPA49 (from UniProt Q9GZS1 1-419), the binding entry with RPA2 (human) and with RPA1 (human) was “binds” in each case.

These data come from PMC8660638.
